In article PMC7819943, “Rice protein-binding microarrays: a tool to detect cis-acting elements near promoter regions in rice”:
The other results are listed elsewhere or left out.

Amino acid sequences for entries named in this document (tags omitted).
UniProt Q0JBA9, entry or part of it: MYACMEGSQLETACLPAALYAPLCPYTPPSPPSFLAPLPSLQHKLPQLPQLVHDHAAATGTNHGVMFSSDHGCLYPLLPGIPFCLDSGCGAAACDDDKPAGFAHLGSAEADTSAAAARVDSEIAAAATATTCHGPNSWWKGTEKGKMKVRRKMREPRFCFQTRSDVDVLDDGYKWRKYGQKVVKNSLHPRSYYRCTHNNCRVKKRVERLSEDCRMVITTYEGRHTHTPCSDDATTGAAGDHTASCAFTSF

Biological target: OsWRKY34 (Oryza sativa, UniProt Q0JBA9 1-250)
Assay: protein-binding microarray (RPBM); PBS, 2% BSA, 51.3 ng/ul salmon testes DNA, 50 uM zinc acetate, 200 nM TF, 25 C, 1 h; high values mean tight binding
Conditions: protein: recombinant; tags: N-terminal polyhistidine and DsRed monomer fusion (pET32a); label: CyDye5-dUTP incorporated in the synthesized complementary strand; 3' TTTTT single-stranded linker to array surface; dsDNA, one strand shown
Outline: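 Binding signal is reported as fluorescence intensity per feature (arbitrary units) from an Axon 4000B scanner. Incubation used 200 nM of each Ni–NTA-purified, N-terminally polyhistidine- and DsRed-fused transcription factor from E. coli BL21-CodonPlus on a double-stranded custom Agilent array for 1 h at 25 °C, with 50 µM zinc acetate in the buffer, followed by washing.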

Sequence	binding signal
TTGGGTTTGGTTGCGTTGCGGCCCATCCATCGCATTCGCGCGGAGTCACCTAGTGCAG	8160 fluorescence intensity (a.u.)
TGGAGTTTTGTTTCTCTCCCATCCCACCACCTCGGCCTCACGGAGTCACCTAGTGCAG	8910 fluorescence intensity (a.u.)
ACGCCGGAGCTCATCGCCAACAGCCGCATCCTCCACCGTCCGGAGTCACCTAGTGCAG	9470 fluorescence intensity (a.u.)
TGGTAATATGCTTGTCTAAAATATTTGAAAATATTTTTTTCGGAGTCACCTAGTGCAG	8850 fluorescence intensity (a.u.)
ATACTTCCATTTGTGCCATACATTTTGTCATTTCGACCTGCGGAGTCACCTAGTGCAG	10800 fluorescence intensity (a.u.)
CTTCGATCACCAAATCGCCACATCAATTACAACTTATAGTCGGAGTCACCTAGTGCAG	9190 fluorescence intensity (a.u.)
CGGTTTTCTGGTTGAGGGGTACGAATTAGATTCGGTGTATCGGAGTCACCTAGTGCAG	8850 fluorescence intensity (a.u.)
CTCGCCCTCGCGCGCCTCGCTATTAAAGCCGCGGCCTTCTCGGAGTCACCTAGTGCAG	8200 fluorescence intensity (a.u.)
CCTTTCTCCTCCTGTATACGTACGTACGTGCCGCTTTCGCCGGAGTCACCTAGTGCAG	8570 fluorescence intensity (a.u.)
TTAGAATCCATCCTCGCCTATATACAGCCTCAGAGTTGACCGGAGTCACCTAGTGCAG	9520 fluorescence intensity (a.u.)
TATACACACAAACTTCCAATTTTTCCGTCACATCGTTCCACGGAGTCACCTAGTGCAG	8210 fluorescence intensity (a.u.)
TCTCCCAGTCGTTGCTCCTCTGGCCCTCGTACTCCTCCAACGGAGTCACCTAGTGCAG	9360 fluorescence intensity (a.u.)
GTCTATTTGTCCCTGAAGGACAATTCCTTCTGCTGCATGCCGGAGTCACCTAGTGCAG	8880 fluorescence intensity (a.u.)
ATTTTTGGTCATGCTCACATCTTCACCTAGCAATAAGCCCCGGAGTCACCTAGTGCAG	8100 fluorescence intensity (a.u.)
CGGTAATTCTGCTAGCTCGGTTGGCATTGCGGTTCAGAAACGGAGTCACCTAGTGCAG	8320 fluorescence intensity (a.u.)
TTACACCCTCACACCTCACTCACTCACACACACACACAATCGGAGTCACCTAGTGCAG	8070 fluorescence intensity (a.u.)
CTGGCCCCTCTGCAAACTCGTCTCGTACCGTACCCCAAAACGGAGTCACCTAGTGCAG	9260 fluorescence intensity (a.u.)
CGTCTATATGATATCTTTATATGTATGTCGTTCCACATTCCGGAGTCACCTAGTGCAG	8410 fluorescence intensity (a.u.)
ATGCCTCTTTCGTAATCCATGGCCGTTTGATGCAGATCTCCGGAGTCACCTAGTGCAG	9410 fluorescence intensity (a.u.)
GACCCACTCTATCTTTTAACCTTGTCTCTAGACTGCTTTTCGGAGTCACCTAGTGCAG	10400 fluorescence intensity (a.u.)
GTGGTGTGAAGGAATAAGTCCATTTTGCCTCCCTCATCTCCGGAGTCACCTAGTGCAG	8880 fluorescence intensity (a.u.)

Sequence	binding signal
ACATTTCTGACTCTATTTCCAGTCTCAAGCAGTGTGACACCGGAGTCACCTAGTGCAG	8650 fluorescence intensity (a.u.)
CCGTTTCAAAATATTTGACACCGTTGACTTTTTAGTACGTCGGAGTCACCTAGTGCAG	26800 fluorescence intensity (a.u.)
AGCAGGCATCTTTACTCCTAACATACAACTATATTGACAACGGAGTCACCTAGTGCAG	8230 fluorescence intensity (a.u.)
CGCCATCAATCACCATCTACACCTCTAGAGAGCTAATTAACGGAGTCACCTAGTGCAG	8260 fluorescence intensity (a.u.)
GCATCGTTTCTCCTGGCGTCACTGCACCCATAACTGCCAACGGAGTCACCTAGTGCAG	9200 fluorescence intensity (a.u.)
CACGACCACGACTCCATCAACGCCCAAGCAAAGCCGCCGGCGGAGTCACCTAGTGCAG	8480 fluorescence intensity (a.u.)
GGTGGAGTGGTTCGGTGGAAATATGAAGATTTTAATAAATCGGAGTCACCTAGTGCAG	8260 fluorescence intensity (a.u.)
CAGTTCATCTTTTGGGTCTCGTGGTTGATTCATTCGATATCGGAGTCACCTAGTGCAG	12600 fluorescence intensity (a.u.)
GATGATTAACGAGTCACTGTTACTACTACTTTCCCACCCTCGGAGTCACCTAGTGCAG	10800 fluorescence intensity (a.u.)
ACTTAAGCGGTTTGACTTTGTAACGGAGAGAGTAGTCATGCGGAGTCACCTAGTGCAG	8340 fluorescence intensity (a.u.)
CATGCTAACAGCCTAATACTGCTATTATTCGTCTCGCTTCCGGAGTCACCTAGTGCAG	9110 fluorescence intensity (a.u.)
TGCTGGAGGCGCTCGACATCTTCGTCTTCCCGCGACTCCGCGGAGTCACCTAGTGCAG	8060 fluorescence intensity (a.u.)
ATTGTCATTGACTTGTCAACAACTAGTTATTGTACATGCACGGAGTCACCTAGTGCAG	8090 fluorescence intensity (a.u.)
AATGTTATTACTATGCCTGGAACGTCACTTATGTATGTCTCGGAGTCACCTAGTGCAG	10500 fluorescence intensity (a.u.)
AGTAGGAAGTTGTGGGCATGTAATTTACTATTTAAAGTTTCGGAGTCACCTAGTGCAG	8650 fluorescence intensity (a.u.)
CTCCATCTAAAGTTGGTGAAAAGCTATATAACCGTTGACTCGGAGTCACCTAGTGCAG	8590 fluorescence intensity (a.u.)
AGTTTTGTGGTTTCATGGCATGGCTGACGGGGTGGTACTGCGGAGTCACCTAGTGCAG	10200 fluorescence intensity (a.u.)
AACCTTATCCTCTTTTGCTGCTCGCTCTTCTGCTTCACAACGGAGTCACCTAGTGCAG	9640 fluorescence intensity (a.u.)
GCTTCATCTTCATTGGCCTTTGCTTTGTGGCGGCTCCAAACGGAGTCACCTAGTGCAG	11000 fluorescence intensity (a.u.)
TTCCTGTGCTAGCTTCTGCCTCTCTGGTTCTGATCATCTGCGGAGTCACCTAGTGCAG	11900 fluorescence intensity (a.u.)
TAGATGACGTCGTTGACTTTTTCTCACATGTTTGACCATTCGGAGTCACCTAGTGCAG	28800 fluorescence intensity (a.u.)

Sequence	binding signal
GCAACCTTACTAACACTATCATGTTTTTGTTTTTGCCATACGGAGTCACCTAGTGCAG	8220 fluorescence intensity (a.u.)
TGTTGTTACAAAAGTTTGCTTGTTTTCGTGATACTTACTACGGAGTCACCTAGTGCAG	8950 fluorescence intensity (a.u.)
CTGTACAATTAGTTTTTCTTTTTATTTATATTTAATACTTCGGAGTCACCTAGTGCAG	8130 fluorescence intensity (a.u.)
GCTTAATTTCTTTCTTTGTTCTTATTACTGTCTCACGTGACGGAGTCACCTAGTGCAG	10300 fluorescence intensity (a.u.)
AAATTGTACTTCTACTTGGACTCTCCTTTTTCTTTTTTTTCGGAGTCACCTAGTGCAG	11900 fluorescence intensity (a.u.)
TATTCTTACATGTTTGCCCATTCATCTTATTCAAAAAATTCGGAGTCACCTAGTGCAG	8380 fluorescence intensity (a.u.)
ATTTTCCCATGCAATCCTCTCTTGTGTCTCCTACATTCTCCGGAGTCACCTAGTGCAG	10300 fluorescence intensity (a.u.)
ACTCAACTCCGACCCGGTCGCGTCTTCCAAATTTCTTCCTCGGAGTCACCTAGTGCAG	10300 fluorescence intensity (a.u.)
GAGTTTTCAAATGACATTATTGATTTTTCAGTTTTTTTTTCGGAGTCACCTAGTGCAG	8210 fluorescence intensity (a.u.)
CACCACACCATGCAAAGCTCACACACTTCAGCTCGAGATCCGGAGTCACCTAGTGCAG	9210 fluorescence intensity (a.u.)
TTCTTGCTGGGCACTTTTCCTGGTAGTTTTGGCAGATCTCCGGAGTCACCTAGTGCAG	10000 fluorescence intensity (a.u.)
GTTTTCACCGGCGGCGGGGCGGAGAGAAGAAGGGGAACGGCGGAGTCACCTAGTGCAG	9640 fluorescence intensity (a.u.)
CTCTCTCTCTCTCTCTCTCTCTCCTCACCTCTTCTTGTTCCGGAGTCACCTAGTGCAG	10900 fluorescence intensity (a.u.)
ACTTGCTGATTCTTTTTCTTTGGTTAACTGCACGCTTGCTCGGAGTCACCTAGTGCAG	11600 fluorescence intensity (a.u.)
CGCGCCCGCGCGCAGAGGCGTCCATCTCACCCACGACAGCCGGAGTCACCTAGTGCAG	8220 fluorescence intensity (a.u.)
AATTGATTGTGTCACAGTATATATTATAGTGAGGGGTGGGCGGAGTCACCTAGTGCAG	10000 fluorescence intensity (a.u.)
TGTGGTGTTTTATTGTGAAGAAGAGGAAGAGGAAGAGGTACGGAGTCACCTAGTGCAG	8240 fluorescence intensity (a.u.)
AAAACTACAACTTTAACCTTTTTCTTTCTGTAAAGCACAGCGGAGTCACCTAGTGCAG	8220 fluorescence intensity (a.u.)
GCTTCGCTTCACCCTCAATCCTTTCCTTTCTGTCGCGGCCCGGAGTCACCTAGTGCAG	9240 fluorescence intensity (a.u.)
TCCATCGATCTCATCTTATTCATGTGTTTTTCTTTTGATACGGAGTCACCTAGTGCAG	8400 fluorescence intensity (a.u.)
AGTCATGGTTCCTTATTTTGATTTTGGTTTCTGTTATTGACGGAGTCACCTAGTGCAG	11500 fluorescence intensity (a.u.)

Sequence	binding signal
TTAGTATCTTGATCTGTATTTAAGGGTTTGGGGATGTATACGGAGTCACCTAGTGCAG	15500 fluorescence intensity (a.u.)
GCTGTCCAGAGTGGGAGGGGCAAAACGGTCAATTGCTCGACGGAGTCACCTAGTGCAG	10000 fluorescence intensity (a.u.)
TCCCTCCATCCCAACCACTGAAACCACACACACGCTACGCCGGAGTCACCTAGTGCAG	9570 fluorescence intensity (a.u.)
TTGCTGTCTTGCGTGTTCATGCTGCCCCGCGGGCGTTGAGCGGAGTCACCTAGTGCAG	9010 fluorescence intensity (a.u.)
CTCCGTTTTTTAATAGATGACACCGTTGACTTTTTCTCACCGGAGTCACCTAGTGCAG	30600 fluorescence intensity (a.u.)
CTACTCAACTCTCTACTGCTGTGATCTGAACACGCTTCGCCGGAGTCACCTAGTGCAG	9820 fluorescence intensity (a.u.)
CAAATTACTTCCTTTTCAAAATCTAGGATACCGTTGACTTCGGAGTCACCTAGTGCAG	9460 fluorescence intensity (a.u.)
ACTTCTCATTGCCATGTGCAAAAATCTTCATCCTACTGCTCGGAGTCACCTAGTGCAG	9340 fluorescence intensity (a.u.)
CTTATCTCCTGCATATGCCGTGGCCTGATCTGGACGCCGTCGGAGTCACCTAGTGCAG	9560 fluorescence intensity (a.u.)
TCCGTTCCAAGGGTTTCCTCGCGCCGCCGCCGCCGCCATGCGGAGTCACCTAGTGCAG	8140 fluorescence intensity (a.u.)
TGGTGTAGGGTTATGATTGGATGAGTAGTGGAGGTAGGTACGGAGTCACCTAGTGCAG	9780 fluorescence intensity (a.u.)
CTCTCCTCTTCTTGGCAATTATTGCCACCTTTGGAGTTTGCGGAGTCACCTAGTGCAG	8600 fluorescence intensity (a.u.)
TTTCACATCATTCGTCTCTTAGCACTTCTGTCACTGTGGACGGAGTCACCTAGTGCAG	9160 fluorescence intensity (a.u.)
GCCGTTAAAAATCTAAAAAGTTTGACCATGTTATCTGCATCGGAGTCACCTAGTGCAG	8470 fluorescence intensity (a.u.)
ACCTCGTCGACGTGCTCAGTTCCGGCCGTTCACCGCCGCCCGGAGTCACCTAGTGCAG	11000 fluorescence intensity (a.u.)
GTCACTGTTCCTTGCTTACAGCTGCAGCTTTGCAGGTCCCCGGAGTCACCTAGTGCAG	8750 fluorescence intensity (a.u.)
TAGGTTTGCGTCTTGCCGTGGCGGAGTTGGGCTGGGCTCGCGGAGTCACCTAGTGCAG	8210 fluorescence intensity (a.u.)
TCCCTCCGTTTTTTAATAGATGATGCCGTTGACTTTTTCTCGGAGTCACCTAGTGCAG	19300 fluorescence intensity (a.u.)
TGCTGAGGTGGTGGGACTGTGGAATGGGGACTTACAGGGTCGGAGTCACCTAGTGCAG	8720 fluorescence intensity (a.u.)
CGATTTCCACGCCATGTCCGTAGCCGTTTTTTTTTTCTTACGGAGTCACCTAGTGCAG	13600 fluorescence intensity (a.u.)
GCCTTAGGGAGGGTGGTGTGCTCTGGTAGTAGACGACATGCGGAGTCACCTAGTGCAG	11800 fluorescence intensity (a.u.)

Quoted at random: 4 records from the list.
Sequence	binding signal
TGGTGTAGGGTTATGATTGGATGAGTAGTGGAGGTAGGTACGGAGTCACCTAGTGCAG	9780 fluorescence intensity (a.u.)
GTCACTGTTCCTTGCTTACAGCTGCAGCTTTGCAGGTCCCCGGAGTCACCTAGTGCAG	8750 fluorescence intensity (a.u.)
ACCTCGTCGACGTGCTCAGTTCCGGCCGTTCACCGCCGCCCGGAGTCACCTAGTGCAG	11000 fluorescence intensity (a.u.)
TGGTAATATGCTTGTCTAAAATATTTGAAAATATTTTTTTCGGAGTCACCTAGTGCAG	8850 fluorescence intensity (a.u.)
